Experimental data published in patent US6645728.
Positions count from the first letter of the chain named. No constants are given. Whether binding was seen depends on the method and setting. In cells and extracts the contact can be indirect. Some entries that bind do so weakly or less than the wild type. Where a sequence is shown, tags or fusion partners need not be part of it.

B1: Myc-NIK, Q99558 1-947 (enzyme, not shown: small tags and cut ends)
chain: MAVMEMACPGAPGSAVGQQKELPKPKEKTPPLGKKQSSVYKLEAVEKSPVFCGKWEILNDVITKGTAKEGSEAGPAAISIIAQAECENSQEFSPTFSERIFIAGSKQYSQSESLDQIPNNVAHATEGKMARVCWKGKRRSKARKKRKKKSSKSLAHAGVALAKPLPRTPEQESCTIPVQEDESPLGAPYVRNTPQFTKPLKEPGLGQLCFKQLGEGLRPALPRSELHKLISPLQCLNHVWKLHHPQDGGPLPLPTHPFPYSRLPHPFPFHPLQPWKPHPLESFLGKLACVDSQKPLPDPHLSKLACVDSPKPLPGPHLEPSCLSRGAHEKFSVEEYLVHALQGSVSSSQAHSLTSLAKTWAARGSRSREPSPKTEDNEGVLLTEKLKPVDYEYREEVHWATHQLRLGRGSFGEVHRMEDKQTGFQCAVKKVRLEVFRAEELMACAGLTSPRIVPLYGAVREGPWVNIFMELLEGGSLGQLVKEQGCLPEDRALYYLGQALEGLEYLHSRRILHGDVKADNVLLSSDGSHAALCDFGHAVCLQPDGLGKSLLTGDYIPGTETHMAPEVVLGRSCDAKVDVWSSCCMMLHMLNGCHPWTQFFRGPLCLKIASEPPPVREIPPSCAPLTAQAIQEGLRKEPIHRVSAAELGGKVNRALQQVGGLKSPWRGEYKEPRHPPPNQANYHQTLHAQPRELSPRAPGPRPAEETTGRAPKLQPPLPPEPPEPNKSPPLTLSKEESGMWEPLPLSSLEPAPARNPSSPERKATVPEQELQQLEIELFLNSLSQPFSLEEQEQILSCLSIDSLSLSDDSEKNPSKASQSSRDTLSSGVHSWSSQAEARSSSWNMVLARGRPTDTPSYFNGVKVQIQSLNGEHLHIREFHRVKVGDIATGISSQIPAAAFSLVTKDGQPVRYDMEVPDSGIDLQCTLAPDGSFAWSWRVKHGQLENRP
B2: Myc-N200-947 (protein, not shown: small tags and cut ends)
chain: LKEPGLGQLCFKQLGEGLRPALPRSELHKLISPLQCLNHVWKLHHPQDGGPLPLPTHPFPYSRLPHPFPFHPLQPWKPHPLESFLGKLACVDSQKPLPDPHLSKLACVDSPKPLPGPHLEPSCLSRGAHEKFSVEEYLVHALQGSVSSSQAHSLTSLAKTWAARGSRSREPSPKTEDNEGVLLTEKLKPVDYEYREEVHWATHQLRLGRGSFGEVHRMEDKQTGFQCAVKKVRLEVFRAEELMACAGLTSPRIVPLYGAVREGPWVNIFMELLEGGSLGQLVKEQGCLPEDRALYYLGQALEGLEYLHSRRILHGDVKADNVLLSSDGSHAALCDFGHAVCLQPDGLGKSLLTGDYIPGTETHMAPEVVLGRSCDAKVDVWSSCCMMLHMLNGCHPWTQFFRGPLCLKIASEPPPVREIPPSCAPLTAQAIQEGLRKEPIHRVSAAELGGKVNRALQQVGGLKSPWRGEYKEPRHPPPNQANYHQTLHAQPRELSPRAPGPRPAEETTGRAPKLQPPLPPEPPEPNKSPPLTLSKEESGMWEPLPLSSLEPAPARNPSSPERKATVPEQELQQLEIELFLNSLSQPFSLEEQEQILSCLSIDSLSLSDDSEKNPSKASQSSRDTLSSGVHSWSSQAEARSSSWNMVLARGRPTDTPSYFNGVKVQIQSLNGEHLHIREFHRVKVGDIATGISSQIPAAAFSLVTKDGQPVRYDMEVPDSGIDLQCTLAPDGSFAWSWRVKHGQLENRP
B3: Myc-N735-947 (protein, not shown: small tags and cut ends)
chain: EESGMWEPLPLSSLEPAPARNPSSPERKATVPEQELQQLEIELFLNSLSQPFSLEEQEQILSCLSIDSLSLSDDSEKNPSKASQSSRDTLSSGVHSWSSQAEARSSSWNMVLARGRPTDTPSYFNGVKVQIQSLNGEHLHIREFHRVKVGDIATGISSQIPAAAFSLVTKDGQPVRYDMEVPDSGIDLQCTLAPDGSFAWSWRVKHGQLENRP
B4: Myc-NIK-KK429/430AA (enzyme, not shown: small tags and cut ends)
chain: B1 chain with K429A, K430A

How the values were obtained:
[1] = biological target: NIK-T7 (Homo sapiens (Human)), Q99558; assay: co-immunoprecipitation from HeLa lysates, anti-T7 IP, anti-Myc blot; settings: remark: other sources report otherwise
[2] = biological target: NIK-T7 (Homo sapiens (Human)), Q99558; assay: co-immunoprecipitation from HeLa lysates, anti-T7 IP, anti-Myc blot (FIG. 5A); settings: remark: other sources report otherwise
[3] = biological target: NIK-T7 (Homo sapiens (Human)) (UniProt Q99558); assay: co-immunoprecipitation from 293 lysates, anti-T7 IP, anti-Myc blot
IKKα-T7 (murine) [4] = biological target: T1, IKKα-T7 (murine) (UniProt Q60680); assay: co-immunoprecipitation (FIGS. 8 and 9)
T1 sequence (looked up): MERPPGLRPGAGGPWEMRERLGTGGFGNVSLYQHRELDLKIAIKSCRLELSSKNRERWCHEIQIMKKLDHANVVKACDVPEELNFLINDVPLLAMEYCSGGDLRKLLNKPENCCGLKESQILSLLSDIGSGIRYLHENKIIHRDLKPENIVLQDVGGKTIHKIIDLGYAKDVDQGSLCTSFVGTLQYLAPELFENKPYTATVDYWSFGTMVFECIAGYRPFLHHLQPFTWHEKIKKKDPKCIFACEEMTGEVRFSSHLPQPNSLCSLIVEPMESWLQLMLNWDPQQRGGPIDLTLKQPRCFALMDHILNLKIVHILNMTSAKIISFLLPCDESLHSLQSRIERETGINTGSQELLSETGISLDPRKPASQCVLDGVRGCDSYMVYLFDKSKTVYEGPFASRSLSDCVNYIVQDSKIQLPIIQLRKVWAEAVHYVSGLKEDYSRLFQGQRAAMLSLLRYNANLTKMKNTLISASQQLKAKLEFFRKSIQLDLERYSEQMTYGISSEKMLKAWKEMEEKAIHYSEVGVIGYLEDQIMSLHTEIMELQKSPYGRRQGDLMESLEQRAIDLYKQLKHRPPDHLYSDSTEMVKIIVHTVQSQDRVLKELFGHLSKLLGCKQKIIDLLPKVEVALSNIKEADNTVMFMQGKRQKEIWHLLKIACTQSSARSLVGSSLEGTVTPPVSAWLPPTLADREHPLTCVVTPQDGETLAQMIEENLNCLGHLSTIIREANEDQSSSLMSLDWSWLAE

IKKα-T7 (murine) [5] = biological target: T1, IKKα-T7 (murine); assay: co-immunoprecipitation from 293 lysates, anti-T7 IP, anti-Myc blot
IKKα-T7 (murine) [6] = biological target: T1, IKKα-T7 (murine); assay: co-immunoprecipitation from 293 lysates, anti-T7 IP, anti-Myc blot (FIG. 8B)

Binder	binding [3]	binding (IKKα-T7 (murine) [5])	other results
B1	–	–	binding [1]: binds; binding [2]: binds
B2	binds	–	–
B3	binds	binds	binding (IKKα-T7 (murine) [4]): binds; binding (IKKα-T7 (murine) [6]): binds
B4	–	binds	–
